Among the data in article PMC5834255 are binding values, retold here.

The chains behind the UniProt entries cited, without tags or fusion partners.
UniProt Q04206: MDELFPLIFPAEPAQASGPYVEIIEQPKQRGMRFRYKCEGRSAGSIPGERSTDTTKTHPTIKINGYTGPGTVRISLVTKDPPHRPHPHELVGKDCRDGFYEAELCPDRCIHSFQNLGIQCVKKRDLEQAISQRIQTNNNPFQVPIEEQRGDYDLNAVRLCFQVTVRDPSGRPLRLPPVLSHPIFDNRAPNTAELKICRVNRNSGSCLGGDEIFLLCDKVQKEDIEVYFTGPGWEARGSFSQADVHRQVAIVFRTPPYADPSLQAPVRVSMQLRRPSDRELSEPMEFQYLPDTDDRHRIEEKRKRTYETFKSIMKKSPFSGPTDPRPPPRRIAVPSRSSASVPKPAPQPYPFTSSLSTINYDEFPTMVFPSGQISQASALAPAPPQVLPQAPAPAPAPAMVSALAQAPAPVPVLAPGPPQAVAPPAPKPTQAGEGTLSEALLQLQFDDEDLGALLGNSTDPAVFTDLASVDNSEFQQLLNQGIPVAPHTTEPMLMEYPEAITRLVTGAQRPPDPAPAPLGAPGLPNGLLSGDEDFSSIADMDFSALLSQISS
UniProt P27695: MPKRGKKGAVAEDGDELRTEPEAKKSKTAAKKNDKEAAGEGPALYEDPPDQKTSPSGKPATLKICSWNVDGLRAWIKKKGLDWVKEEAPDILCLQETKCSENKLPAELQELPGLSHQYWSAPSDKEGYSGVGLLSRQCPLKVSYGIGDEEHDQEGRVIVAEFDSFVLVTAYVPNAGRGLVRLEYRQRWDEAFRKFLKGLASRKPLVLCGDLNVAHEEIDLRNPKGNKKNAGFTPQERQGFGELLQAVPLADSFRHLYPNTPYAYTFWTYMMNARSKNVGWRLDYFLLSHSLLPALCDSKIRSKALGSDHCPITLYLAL

No constants are given. Whether binding was seen depends on the method and setting. In cells and extracts the contact can be indirect. Some entries that bind do so weakly or less than the wild type.

In assay [1] the target is NFκB subunit p65 (human (endogenous in human prostatic cell lines; line of the co-IP not named)) (UniProt Q04206). In words: co-IP; Pierce Co-IP kit; cells cross-linked with DTBP (5 mM, 30 min on ice) before lysis; IP with APE1/Ref-1 antibody and, in reverse, with p65 antibody; immunoblot; beads without antibody (Mock) and generic IgG as negative controls. On the technique in general: In western blotting, separated proteins are transferred to a membrane and probed.

For assay [2], the target named is Apurinic/apyrimidinic endonuclease 1/redox effector factor 1 (APE1/Ref-1) (human (endogenous in human prostatic cell lines; line of the co-IP not named)) (UniProt P27695). The assay is described as above.

Turning to “Apurinic/apyrimidinic endonuclease 1/redox effector factor 1 (APE1/Ref-1) (from UniProt P27695 1-318)”, the binding entry in assay [1] is recorded as “binds”.

For “NFκB subunit p65 (from UniProt Q04206 1-551)”, in assay [2], the binding entry is reported as “binds”.
